Drawing on paper PMC7862700, this text covers binding signal for 39 sequences.

Protein sequences, listed by entry. Tags and fused reporters are not part of them. Lines headed by an entry give the natural chain unless they say otherwise; changes in a name come on top.
UniProt P41212: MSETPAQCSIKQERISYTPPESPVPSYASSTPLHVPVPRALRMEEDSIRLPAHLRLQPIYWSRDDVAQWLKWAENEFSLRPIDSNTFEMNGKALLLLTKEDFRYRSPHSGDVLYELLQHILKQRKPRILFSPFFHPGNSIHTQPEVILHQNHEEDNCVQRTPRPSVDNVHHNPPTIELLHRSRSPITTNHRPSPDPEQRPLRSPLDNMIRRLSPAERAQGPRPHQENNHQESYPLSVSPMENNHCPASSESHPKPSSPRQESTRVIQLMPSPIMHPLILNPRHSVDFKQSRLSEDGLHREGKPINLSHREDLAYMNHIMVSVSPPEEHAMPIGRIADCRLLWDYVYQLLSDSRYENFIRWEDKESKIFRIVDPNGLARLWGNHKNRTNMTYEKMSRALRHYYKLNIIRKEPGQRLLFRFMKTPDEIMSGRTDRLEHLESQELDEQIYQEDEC

Only a part is listed here, and it is no random draw. At the low end of the ranking the order means little.

In the experiment the target is ETV6 (UniProt P41212). In words: DAPPL (digital affinity profiling via proximity ligation, sequencing). The note with it: 10 mM Tris-HCl pH 7.5, 50 mM NaCl, 1 mM DTT, 4% glycerol, room temperature, 30 min; GST-TFs on glutathione beads, 16-mer random dsDNA library, 0.1% …; high values mean tight binding; double strand, one strand shown; scale: fold enrichment (6-mer frequency, TF over GST control).
As to TCGCCT, the binding signal turned out to be 1.32.
As for GACATC, the figure is 1.33; as for AACATG, 1.25; as for TCTTCA, 1.25.
Sequence CTCAAT had a binding signal of 1.23.
The value for CTTGGT was 1.44.
Consider TTTTCA, for which the binding signal stood at 1.21.
Sequence CTGCAA returned a binding signal of 1.33.
The value for TGGATG was 1.44; that for AGCAGC was 1.04.
The value for AATTTA was 1.33; that for TAATGT was 1.09.
In the case of ACTAAA, the binding signal was found to be 1.28.
As for CTTTCC, the figure is 2.07; as for TAGCTA, 1.28.
Consider CTCCTC, for which the binding signal was found to be 1.38.
As for CCTCTT, the figure is 1.68; as for ATAAAT, 1.25.
As to TACCGC, the binding signal worked out at 1.04.
The value for GGAAAC was 1.66; that for TTTTTA was 1.33; that for TTCTCA was 1.26.
As for TGAACC, the figure is 1.11; as for ATTTCA, 1.27.
TCGAAT yielded a binding signal of 1.13.
As for ATGATT, the figure is 1.19; as for TCTCTA, 1.21; as for GACCTG, 1.14.
Consider ATGTCC, for which the binding signal was determined as 1.57.
The value for AACATA was 1.27; that for ATCAAT was 1.07; that for AAATTA was 1.25.
As for AGATCC, the figure is 1.1; as for AATACA, 1.34.
Regarding ATGTTC, the binding signal is 1.18.
The sequence ATCCCT came in with a binding signal of 1.23.
As for AATTGT, the figure is 1.26; as for TCCGGC, 2.28.
On to AGCTAA, for which the binding signal amounted to 0.986.
